The data set can be described thus: general procedure: Boc solid-phase peptide synthesis; aminoacyl-4-(oxymethyl)phenylacetamidomethyl-resin (PAM). Particulars: whole synthesis.

Strings that start with PEPTIDE1 are HELM notation: dots part the residues, brackets hold end groups and non-standard residues.

The source of these data is patent publication US4560676A (The Rockefeller University, priority 1981, dated 1985).

Consider “PEPTIDE1{S.D.A.A.V.D.T.S.S.E.I.T.T.K.D.L.K.E.K.K.E.V.V.E.E.A.E.N}$$$$V2.0”, for which the difficulty met result is on record as “the large deletion may have occurred at Lys(Tfa)^17”. Where the note is “overall isolated yield based on C-terminal Asn”, this substance gave an isolated yield of 31%.
